Data from patent US12617863.
Results are given in words; binding and its absence hold for the method and conditions named. Binding calls can cover weak binding; strength is not graded here.

Assays:
[1] = target: monkey platelet glycoprotein I(b)α (GPIbα) on Cynomolgus monkey platelets (Cynomolgus monkey); test: flow cytometry on monkey platelets
[2] = target: rabbit platelet glycoprotein I(b)α (GPIbα) on rabbit platelets (rabbit); test: flow cytometry on platelets, FITC anti-human Kappa chain detection
[3] = target: rat platelet glycoprotein I(b)α (GPIbα) on rat platelets (rat); test: as above
[4] = target: recombinant hexa-histidine tagged GPIbα; test: SPR, His-tagged GPIbα held on Ni-NTA sensor
[5] = target: monkey platelet glycoprotein I(b)α (GPIbα) on Cynomolgus monkey platelets (Cynomolgus monkey); test: flow cytometry on Cynomolgus monkey washed platelets, 5 µg/mL
[6] = target: monkey platelet glycoprotein I(b)α (GPIbα) on Cynomolgus monkey platelets (Cynomolgus monkey); test: flow cytometry, washed Cynomolgus monkey platelets, Fab 5 µg/mL, FITC anti-human kappa chain secondary antibody
[7] = target: rat platelet glycoprotein I(b)α (GPIbα) on rat platelets (rat); test: flow cytometry, rat platelets from PRP, FITC anti-human kappa chain detection
[8] = target: recombinant hexa-histidine tagged GPIbα; test: SPR, His-tagged GPIbα immobilised on a Ni-NTA gold sensor, H001 injected at 500, 100, 50 and 10 nM
[9] = target: rabbit platelet glycoprotein I(b)α (GPIbα) on rabbit platelets (rabbit); test: flow cytometry on platelets, serial concentrations
[10] = target: rat platelet glycoprotein I(b)α (GPIbα) on rat platelets (rat); test: flow cytometry on platelets, serial concentrations
[11] = target: rabbit platelet glycoprotein I(b)α (GPIbα) on rabbit platelets (rabbit); test: flow cytometry, rabbit platelets from PRP, FITC anti-human kappa chain detection

Measured: binding

B1: humanized Fab H001 (Fab, V domains shown)
VH: QVQLVESGGGLVKPGGSLRLSCAASGFTFSSFAMSWIRQAPGKGLEWVSSITSAGTPYYPDSVLGRFTISRDNAKNSLYLQMNSLRAEDTAVYYCARSRGYEDYFDYWGQGTLVTVSS
VL: DIQMTQSPSSLSASVGDRVTITCKSSQSLLNSRNQKNYLAWYQQKPGKAPKLLIYFTSTRESGVPSRFSGSGSGTDFTLTISSLQPEDFATYYCQQHYSSPWTFGQGTKVEIKR
binds: all assays above

B2: humanized Fab H002 (Fab, V domains shown)
VH: B1 VH
VL: DIVMTQSPLSLPVTPGEPASISCKSSQSLLNSRNQKNYLAWYLQKPGQSPQLLIYFTSTRESGVPDRFSGSGSGTDFTLKISRVEAEDVGVYYCQQHYSSPWTFGQGTKVEIKR
not listed: [4] | [8]
binds: all other assays above
